Results on three molecules are retold here after publication PMC4829179.

Sequences of proteins named here, by UniProt entry; tags and fusion partners are left off.
UniProt Q62696: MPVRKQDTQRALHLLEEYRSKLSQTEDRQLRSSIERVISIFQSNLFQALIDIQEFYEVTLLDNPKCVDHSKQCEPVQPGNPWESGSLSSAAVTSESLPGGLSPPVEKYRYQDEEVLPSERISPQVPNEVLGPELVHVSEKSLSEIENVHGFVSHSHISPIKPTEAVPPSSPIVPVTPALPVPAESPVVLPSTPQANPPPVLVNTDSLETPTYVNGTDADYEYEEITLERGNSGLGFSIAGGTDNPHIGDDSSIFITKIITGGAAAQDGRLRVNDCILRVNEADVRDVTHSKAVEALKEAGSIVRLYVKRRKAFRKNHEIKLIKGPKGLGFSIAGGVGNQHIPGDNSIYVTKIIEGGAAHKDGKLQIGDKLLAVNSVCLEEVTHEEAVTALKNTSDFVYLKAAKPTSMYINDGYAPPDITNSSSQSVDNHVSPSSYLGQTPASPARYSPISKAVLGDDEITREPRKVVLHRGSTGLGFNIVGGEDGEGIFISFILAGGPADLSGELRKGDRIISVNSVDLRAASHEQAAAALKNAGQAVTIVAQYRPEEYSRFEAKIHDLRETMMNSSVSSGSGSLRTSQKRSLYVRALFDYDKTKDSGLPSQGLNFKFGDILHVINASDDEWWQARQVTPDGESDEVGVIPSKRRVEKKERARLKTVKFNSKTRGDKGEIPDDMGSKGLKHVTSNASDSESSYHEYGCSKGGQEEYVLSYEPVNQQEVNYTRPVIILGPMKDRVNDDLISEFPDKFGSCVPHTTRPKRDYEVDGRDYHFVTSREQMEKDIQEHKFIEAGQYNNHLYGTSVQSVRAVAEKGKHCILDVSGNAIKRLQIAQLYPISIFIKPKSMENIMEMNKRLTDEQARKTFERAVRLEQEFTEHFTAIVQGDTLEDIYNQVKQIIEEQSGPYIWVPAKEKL
UniProt Q811D0: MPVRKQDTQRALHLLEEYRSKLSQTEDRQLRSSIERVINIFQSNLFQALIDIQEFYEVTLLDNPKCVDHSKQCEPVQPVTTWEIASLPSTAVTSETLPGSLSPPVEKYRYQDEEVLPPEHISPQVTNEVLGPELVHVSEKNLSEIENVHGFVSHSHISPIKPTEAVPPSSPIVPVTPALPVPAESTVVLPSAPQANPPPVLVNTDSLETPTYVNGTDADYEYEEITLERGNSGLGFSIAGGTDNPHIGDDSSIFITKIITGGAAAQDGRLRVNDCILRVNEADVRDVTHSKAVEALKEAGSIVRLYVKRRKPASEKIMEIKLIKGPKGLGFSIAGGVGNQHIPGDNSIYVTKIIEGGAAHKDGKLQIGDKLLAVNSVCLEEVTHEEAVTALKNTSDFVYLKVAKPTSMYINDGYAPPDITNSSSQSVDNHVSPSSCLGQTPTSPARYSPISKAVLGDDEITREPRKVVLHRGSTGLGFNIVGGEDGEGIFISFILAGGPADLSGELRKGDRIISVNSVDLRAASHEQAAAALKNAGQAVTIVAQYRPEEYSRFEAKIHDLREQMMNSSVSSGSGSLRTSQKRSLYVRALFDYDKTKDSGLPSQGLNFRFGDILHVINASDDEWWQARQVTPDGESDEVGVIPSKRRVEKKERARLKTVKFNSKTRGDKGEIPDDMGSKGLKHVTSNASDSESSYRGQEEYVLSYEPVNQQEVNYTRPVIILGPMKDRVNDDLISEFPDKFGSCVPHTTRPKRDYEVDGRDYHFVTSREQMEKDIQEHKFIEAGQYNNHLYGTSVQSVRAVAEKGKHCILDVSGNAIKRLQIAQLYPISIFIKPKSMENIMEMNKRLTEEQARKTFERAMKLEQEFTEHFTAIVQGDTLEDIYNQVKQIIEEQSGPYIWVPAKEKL
UniProt P70618: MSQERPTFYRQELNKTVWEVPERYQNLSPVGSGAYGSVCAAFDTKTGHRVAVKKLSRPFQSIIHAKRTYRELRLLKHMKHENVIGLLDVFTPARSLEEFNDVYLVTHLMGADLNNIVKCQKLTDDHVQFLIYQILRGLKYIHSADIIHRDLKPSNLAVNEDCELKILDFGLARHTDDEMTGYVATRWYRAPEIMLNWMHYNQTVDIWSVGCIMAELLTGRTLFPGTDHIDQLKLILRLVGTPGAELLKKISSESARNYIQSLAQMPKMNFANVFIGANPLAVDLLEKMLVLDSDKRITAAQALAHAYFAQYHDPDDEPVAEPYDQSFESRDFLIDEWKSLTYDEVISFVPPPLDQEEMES

The target of test [1] is Discs large 1 (Dlg1), rat (rat (endogenous in optic and sciatic nerve)) (UniProt Q62696). Kind of test: pull-down; same pull-down as a1 (GST-Kif13b/MBS bait, P11 rat optic nerve lysate), read by the paper for endogenous Dlg1 against another protein of the lysate.
Test [2] has the same target. Kind of test: pull-down; same pull-down as a2 (GST-Kif13b/MBS bait, P11 rat sciatic nerve lysate), read by the paper for endogenous Dlg1 against another protein of the lysate.
For test [3], the target named is Discs large 1 (Dlg1), mouse (mouse (endogenous in sciatic nerve)) (UniProt Q811D0). Kind of test: co-IP; anti-Dlg1 immunoprecipitation from P20 mouse sciatic nerve lysate (1% NP-40, 150 mM NaCl, 50 mM Tris pH 8.0), protein G agarose, mouse IgG as control; immunoblot. In general terms: In western blotting, separated proteins are transferred to a membrane and probed.

In test [4] the target is Discs large 1 (Dlg1), rat (rat (endogenous in optic and sciatic nerve)) (UniProt Q62696). Kind of test: co-IP; Dlg1 and p38γ co-immunoprecipitated from P11 rat optic nerve lysate; immunoblot.

Residue numbers refer to the chain shown, from its start. Results are given in words; binding and its absence hold for the method and conditions named. In cells and extracts the contact can be indirect. Some binding calls cover weakened binding; strength is not graded here.

On to “p38α MAPK, rat (from UniProt P70618 1-360)”, for which the binding result in test [1] and in test [2] was “no binding” in each case.

B1: p38γ mitogen-activated protein kinase (MAPK), mouse (protein, UniProt O08911 1-367)
chain: MSSPPPARKGFYRQEVTKTAWEVRAVYQDLQPVGSGAYGAVCSAVDSRTGNKVAIKKLYRPFQSELFAKRAYRELRLLKHMRHENVIGLLDVFTPDESLDDFTDFYLVMPFMGTDLGKLMKHETLSEDRIQFLVYQMLKGLKYIHAAGVIHRDLKPGNLAVNEDCELKILDFGLARQADSEMTGYVVTRWYRAPEVILNWMRYTQTVDIWSVGCIMAEMITGKILFKGNDHLDQLKEIMKITGTPPPEFVQKLQSAEAKNYMEGLPELEKKDFASVLTNASPQAVNLLERMLVLDAEQRVTAAEALTHPYFESLRDTEDEPKAQKYDDSFDDVDRTLEEWKRVTYKEVLSFKPPRQLGARVPKETAL
Regarding B1, the binding entry in test [3] is recorded as “binds”.

B2: p38γ mitogen-activated protein kinase (MAPK), rat (protein, UniProt Q63538 1-367)
chain: B1 chain with S98T, I241V, R290K, T307A
Take B2: the binding entry in test [4] was “binds”.
